In this data set the target is T1, VitR (His-VitR) (Chromobacterium violaceum) (UniProt Q7NZ65).
T1 sequence (looked up): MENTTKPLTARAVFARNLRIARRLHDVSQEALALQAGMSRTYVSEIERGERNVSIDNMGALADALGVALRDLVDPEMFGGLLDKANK
The data set is described as follows: EMSA. Particulars: shift starts at 10 nM VitR, complete at 25 nM, 0.1 mg/mL salmon sperm DNA, 10 mM Tris-HCl pH 7.5, 40 mM KCl, 1 mM MgCl2, 0.1 mg/mL BSA, 1 mM DTT, 5% glycerol, 20 uL, 25 C 25 min, native 5% PAGE in TB, recombinant protein, residues 1-87, protein details: N-terminal His-tag (pET15b), label: 32P (5' end, T4 PNK), probe letters rebuilt from the primers and the genome.

The values below come from publication PMC11019928.

Tags and fusion partners may be left off the protein sequences shown.

Turning to “GGCCTAGGATCCCGTTGTGTTTTCCATACCCCGATAGCATCAGCGCTTGCTAGCGCTCAAGCCACGCGGTATGATTTGCAAAATGTTAACTATAAGTGACTTTTTGATTTTTATTGATATCTTCATGACACTCATTATGTGCTATGCGCTGCTCTGACGGCCACACATGGAGGTGCTTATGCAGAAAATTCCCATTCCGTGATCTACGGCGTTTTCCCGCTACCGCTCTGCCTTGACCATATCCAGAGCCTTGTCCGCCCAACCATCGCAAGGTTCAAACACAATGAGGGTTTTGCCATGCCTAGCATCACCCGCAGTTCGTCTCATCTCGCGGAATTCGCTAGG (double strand) [vioS/vitR intergenic promoter region (specific probe)]”, the binding result is reported as “binds”.
